Laboratory results taken from paper PMC4422613.
Results are given in words; binding and its absence hold for the method and conditions named. In cells and extracts the contact can be indirect. Binding can be weak; no strength is given. For some of these results: Sequences can lack the tags named with a protein.

By UniProt entry, the sequences of proteins in these tests, tags left out. Where a name states a change or a piece, a line headed by the entry shows the natural chain unless it says otherwise.
UniProt F4K567: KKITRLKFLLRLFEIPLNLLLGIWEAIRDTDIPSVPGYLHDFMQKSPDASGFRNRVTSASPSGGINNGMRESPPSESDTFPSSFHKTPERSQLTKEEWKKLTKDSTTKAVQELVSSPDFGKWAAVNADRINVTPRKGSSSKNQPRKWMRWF
UniProt Q0WVK0: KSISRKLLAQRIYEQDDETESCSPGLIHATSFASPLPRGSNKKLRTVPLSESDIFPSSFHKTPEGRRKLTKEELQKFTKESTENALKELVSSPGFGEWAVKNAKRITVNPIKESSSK
UniProt P41917: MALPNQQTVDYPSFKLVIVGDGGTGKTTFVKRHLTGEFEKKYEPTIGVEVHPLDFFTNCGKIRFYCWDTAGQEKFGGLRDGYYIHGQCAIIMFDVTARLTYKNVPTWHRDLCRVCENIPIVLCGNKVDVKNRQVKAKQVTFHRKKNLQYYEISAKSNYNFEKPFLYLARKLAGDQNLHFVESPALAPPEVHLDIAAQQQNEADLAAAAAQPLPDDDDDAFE

Experiments:
[1] = target: At_Nemp-A Ct (GFP-tagged C-terminal region) (Arabidopsis thaliana) (UniProt Q9SHQ6); experiment: co-IP; Xenopus embryos co-injected with mRNAs; conditions as in Fig 3; immunoprecipitation against HA, western blot with anti-Myc or anti-HA
[2] = target: At_Nemp-B Ct (GFP-tagged C-terminal region) (Arabidopsis thaliana) (UniProt F4K567); experiment: as above
[3] = target: At_Nemp-C Ct (GFP-tagged C-terminal region) (Arabidopsis thaliana) (UniProt Q0WVK0); experiment: as above
Hs_emerin-Myc (human) = target: T1, Hs_emerin-Myc (human) (UniProt P50402); experiment: co-IP; Xenopus embryos co-injected with mRNAs, collected at the late blastula stage (stage 9), lysis buffer A; immunoprecipitation against Myc, western blot with anti-Myc or anti-HA
T1 sequence: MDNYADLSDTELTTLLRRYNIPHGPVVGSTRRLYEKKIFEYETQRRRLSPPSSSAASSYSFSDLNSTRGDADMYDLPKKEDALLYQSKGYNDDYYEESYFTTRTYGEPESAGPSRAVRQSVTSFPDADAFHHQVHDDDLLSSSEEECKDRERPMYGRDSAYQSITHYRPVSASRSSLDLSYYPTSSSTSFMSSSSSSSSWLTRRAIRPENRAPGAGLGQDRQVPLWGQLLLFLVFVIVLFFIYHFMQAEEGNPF

Substance	binding [1]	binding [2]	binding [3]	binding (Hs_emerin-Myc (human))
Myc-tagged At_Ran2 (from UniProt P41917 1-221)	binds	binds weakly	binds weakly	–
Xl_Nemp1 (Xenopus laevis Nemp1), wild type	–	–	–	binds
